Here are results for 45 compounds from the supplement of paper PMC9226226.

In the test the test system is Werner syndrome hMSCs (WRN-/-). Kind of test: relative cell density (fold change vs vehicle control); higher = more proliferation (geroprotective). As to conditions: concentration (umol/L): 1, 6 days.

Where “and” joins values, the source holds several entries; their conditions need not be identical. Equal values may be shown once. Some of the results follow. Several reference drugs read as weak here; read low effects with care.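 Prematurely aging human mesenchymal stem cells without the Werner syndrome gene were monitored by automated live-cell imaging over three biological repeats. The top twenty drugs for increasing growth versus vehicle moved forward; no fixed cutoff was specified.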

For `COC(=O)c1ccccc1O`, the relative cell density (vehicle: DMSO) was determined as 0.909.

Turning to `COc1ccccc1N1CCN(CC(O)COc2cccc3ccccc23)CC1` (stereo not given), under “vehicle: DMSO”, the relative cell density was 0.943 and 1.06.

In the case of `CN1CCC(=C2c3ccccc3CC(=O)c3sccc32)CC1`, where the note is “vehicle: DMSO”, the relative cell density was determined as 1.08.

Where the note is “vehicle: DMSO”, `CC(C)(C)C(=O)OCOP(=O)(COCCn1cnc2c(N)ncnc21)OCOC(=O)C(C)(C)C` had a relative cell density of 1.1.

Turning to `CCOc1ccc(Cc2cc([C@@H]3O[C@H](SC)[C@@H](O)[C@H](O)[C@H]3O)ccc2Cl)cc1`, the relative cell density (vehicle: DMSO) is 1.07.

As for `COc1cc(OC)c(C(=O)CCCN2CCCC2)c(OC)c1`, the relative cell density (vehicle: DMSO) came to 0.784.

`N#CC(c1ccc(Cl)cc1)c1c(Cl)cc(-n2ncc(=O)[nH]c2=O)cc1Cl` (stereo not given) returned a relative cell density (vehicle: DMSO) of 0.906.

For `OCc1cc([C@@H](O)CNCCCCCCOCCOCc2c(Cl)cccc2Cl)ccc1O`, the relative cell density (vehicle: DMSO) came to 1.12.

In turn, `O.O.O.O.O=C([O-])CC(O)(CC(=O)[O-])C(=O)[O-].[Li+].[Li+].[Li+]` came in with a relative cell density (vehicle: DMSO) of 1.29.

In the case of `Nc1c(Br)cc(Br)cc1CN[C@H]1CC[C@H](O)CC1`, where the note is “vehicle: Water”, the relative cell density amounted to 1.04.

In turn, `Oc1ccc(Cl)c2cccnc12` yielded a relative cell density (vehicle: DMSO) of 1.15.

With `Cn1ccnc1S`, under “vehicle: DMSO”, the relative cell density stood at 1.16.

As for `CS(=O)(=O)CCNCc1ccc(-c2ccc3ncnc(Nc4ccc(OCc5cccc(F)c5)c(Cl)c4)c3c2)o1`, the relative cell density (vehicle: DMSO) was 1.27 and 1.08.

In the case of `C=CC(=O)Nc1cccc(Nc2nc(Nc3ccc(N4CCN(C(C)=O)CC4)cc3OC)ncc2C(F)(F)F)c1`, the relative cell density (vehicle: DMSO) is 1.07.

`CC(C)(Sc1cc(C(C)(C)C)c(O)c(C(C)(C)C)c1)Sc1cc(C(C)(C)C)c(O)c(C(C)(C)C)c1` had a relative cell density (vehicle: DMSO) of 1.24.

Consider `COc1cc(NC(C)CCCN)c2ncccc2c1` (stereo not given), for which the relative cell density (vehicle: DMSO) is 0.0856.

As for `COc1cc(OC)c(/C=C/S(=O)(=O)Cc2ccc(OC)c(NCC(=O)O)c2)c(OC)c1`, the relative cell density (vehicle: DMSO) came out at 0.141.

On to `CCCCCCCCCCCCCCCCOc1nc2ccc(C)cc2c(=O)o1`, for which the relative cell density (vehicle: Water) was determined as 0.789.

`NC(N)=Nc1nc(CSCC/C(N)=N/S(N)(=O)=O)cs1` gave a relative cell density (vehicle: DMSO) of 1.

Under “vehicle: DMSO”, `CC/C(=C(/CC)c1ccc(O)cc1)c1ccc(O)cc1` gave a relative cell density of 1.34.

Turning to `CC1=C(/C=C/C(C)=C/C=C/C(C)=C\C(=O)O)C(C)(C)CCC1`, the relative cell density (vehicle: DMSO) amounted to 1.14.

In the case of `CCOc1ccc2nc3cc(N)ccc3c(N)c2c1`, the relative cell density (vehicle: DMSO) stood at 1.19.

Compound `CN(Cc1cnc2nc(N)nc(N)c2n1)c1ccc(C(=O)N[C@@H](CCC(=O)O)C(=O)O)cc1` gave a relative cell density (vehicle: DMSO) of 0.938.

For the compound `Nc1nc(NC2CC2)c2ncn([C@H]3C=C[C@@H](CO)C3)c2n1`, the relative cell density (vehicle: Water) was 0.958.

The compound `C[N+](C)(C)CCOC(=O)CCC(=O)OCC[N+](C)(C)C` had a relative cell density (vehicle: Water) of 0.982.

For the compound `CCCCCCCCCCCCCCCCOP(=O)([O-])OCC[N+](C)(C)C`, for the setting “vehicle: Water”, the relative cell density turned out to be 0.867.

Compound `CSCCNc1nc(SCCC(F)(F)F)nc2c1ncn2[C@@H]1O[C@H](COP(=O)(O)OP(=O)(O)C(Cl)(Cl)P(=O)(O)O)[C@@H](O)[C@H]1O` came in with a relative cell density (vehicle: Water) of 0.831.

Take `CCOC(=O)c1ccc(N)cc1`: the relative cell density (vehicle: DMSO) was 1.29 and 1.24.

For the setting “vehicle: DMSO”, `CCN(CC)CCOC(=O)C(c1ccccc1)c1ccccc1` yielded a relative cell density of 1.21.

Compound `OC(CCCN1CCCCC1)(c1ccccc1)c1ccccc1` gave a relative cell density (vehicle: DMSO) of 1.02.

On to `CN1CCN(c2c(F)cc3c(=O)c(C(=O)O)cn4c3c2OCN4C)CC1`, for which the relative cell density (vehicle: Water) worked out at 0.906.

With `O=C1C(=O)c2ccccc2C(O)=C1C1CCC(c2ccc(Cl)cc2)CC1` (stereo not given), the relative cell density (vehicle: DMSO) worked out at 0.89.

For the setting “vehicle: Water”, `Nc1ccn([C@@H]2O[C@H](CO)[C@@H](O)[C@@H]2O)c(=O)n1` returned a relative cell density of 0.989.

In turn, `OC[C@H]1O[C@H](O[C@H]2[C@H](O)[C@@H](O)[C@H](O)O[C@@H]2CO)[C@H](O)[C@@H](O)[C@@H]1O` showed a relative cell density (vehicle: DMSO) of 0.941.

Take `O=c1[nH]c(=O)c2ccccc2o1`: the relative cell density (vehicle: DMSO) came to 1.09.

As to `COc1ccnc(C[S+]([O-])c2nc3cc(OC(F)F)ccc3[nH]2)c1OC` (stereo not given), the relative cell density (vehicle: DMSO) is 1.29 and 1.11.

Take `Nc1ccc(S(=O)(=O)Nc2ccccn2)cc1`: for the setting “vehicle: Water”, the relative cell density came to 0.9.

As for `CN(C)CCCN1c2ccccc2Sc2ccc(Cl)cc21`, the relative cell density (vehicle: DMSO) was found to be 1.27.

`O=c1ccc2ccccc2o1` gave a relative cell density (vehicle: DMSO) of 1.06.

Consider `COc1cc([C@@H]2c3cc4c(cc3[C@@H](O[C@@H]3O[C@@H]5CO[C@@H](c6cccs6)O[C@H]5[C@H](O)[C@H]3O)[C@H]3COC(=O)[C@H]23)OCO4)cc(OC)c1O`, for which the relative cell density (vehicle: DMSO) was found to be 0.522.

As for `CCOc1ccccc1OC(c1ccccc1)C1CNCCO1` (stereo not given), the relative cell density (vehicle: DMSO) was 1.12.

In turn, `O=c1[nH]cnc2c1ncn2[C@@H]1O[C@H](CO)[C@@H](O)[C@H]1O` displayed a relative cell density (vehicle: DMSO) of 1.2.

Take `CCN(CCO)CCCC(C)Nc1ccnc2cc(Cl)ccc12` (stereo not given): the relative cell density (vehicle: Water) is 1.17.

`Cc1nc(Nc2ncc(C(=O)Nc3c(C)cccc3Cl)s2)cc(N2CCN(CCO)CC2)n1`: under “vehicle: DMSO”, the relative cell density is 0.549 and 0.201.

Take `CN(C)c1ccc(C(=C2C=CC(=[N+](C)C)C=C2)c2ccc(N(C)C)cc2)cc1`: the relative cell density (vehicle: DMSO) amounted to 0.218.
